Experimental data taken from US20150024955A1, “Methods of Identifying Modulators of Dephosphorylation of Histone Deacetylase” (THE J. DAVID GLADSTONE INSTITUTES, priority 2006, published 2015).
These are yes or no findings as the source states them, for the method shown. For some of these results: Binding seen in cells or lysates may run through a third protein. Some entries that bind do so weakly or less than the wild type. For some of these results: Sequences can lack the tags named with a protein.

The chains behind the UniProt entries cited, without tags or fusion partners. Where a name states a change or a piece, a line headed by the entry shows the natural chain unless it says otherwise.
UniProt Q8C2B3: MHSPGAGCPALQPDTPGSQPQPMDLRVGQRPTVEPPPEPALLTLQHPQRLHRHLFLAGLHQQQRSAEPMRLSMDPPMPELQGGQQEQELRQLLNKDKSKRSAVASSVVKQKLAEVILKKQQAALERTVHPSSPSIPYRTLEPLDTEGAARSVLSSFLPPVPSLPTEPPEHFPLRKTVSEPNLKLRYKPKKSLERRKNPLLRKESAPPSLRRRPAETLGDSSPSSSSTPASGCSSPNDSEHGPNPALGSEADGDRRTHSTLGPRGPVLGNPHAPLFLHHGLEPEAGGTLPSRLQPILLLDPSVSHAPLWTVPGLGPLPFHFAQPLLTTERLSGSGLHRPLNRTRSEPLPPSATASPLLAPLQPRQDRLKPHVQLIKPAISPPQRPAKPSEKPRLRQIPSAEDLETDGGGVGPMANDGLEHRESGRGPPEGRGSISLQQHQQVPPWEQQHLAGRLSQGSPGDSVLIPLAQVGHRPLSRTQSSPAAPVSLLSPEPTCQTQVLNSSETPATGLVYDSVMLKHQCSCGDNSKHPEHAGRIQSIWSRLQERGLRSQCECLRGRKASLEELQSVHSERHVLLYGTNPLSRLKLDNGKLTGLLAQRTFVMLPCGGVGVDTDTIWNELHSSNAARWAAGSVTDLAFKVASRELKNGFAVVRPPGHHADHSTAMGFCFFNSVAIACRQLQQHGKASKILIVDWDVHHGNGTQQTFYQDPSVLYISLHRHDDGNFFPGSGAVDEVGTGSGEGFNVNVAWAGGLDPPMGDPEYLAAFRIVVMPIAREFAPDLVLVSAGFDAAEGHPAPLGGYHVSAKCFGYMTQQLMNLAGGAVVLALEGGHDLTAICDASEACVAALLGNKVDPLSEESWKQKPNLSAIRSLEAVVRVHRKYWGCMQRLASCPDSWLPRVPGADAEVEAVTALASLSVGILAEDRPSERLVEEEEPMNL
UniProt P62259: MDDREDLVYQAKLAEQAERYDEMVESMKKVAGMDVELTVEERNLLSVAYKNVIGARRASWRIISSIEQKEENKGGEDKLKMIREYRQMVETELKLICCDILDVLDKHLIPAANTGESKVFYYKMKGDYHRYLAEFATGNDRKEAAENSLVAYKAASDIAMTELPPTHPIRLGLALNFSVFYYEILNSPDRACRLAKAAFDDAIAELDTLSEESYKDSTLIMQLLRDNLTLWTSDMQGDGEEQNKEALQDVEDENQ
UniProt P62141: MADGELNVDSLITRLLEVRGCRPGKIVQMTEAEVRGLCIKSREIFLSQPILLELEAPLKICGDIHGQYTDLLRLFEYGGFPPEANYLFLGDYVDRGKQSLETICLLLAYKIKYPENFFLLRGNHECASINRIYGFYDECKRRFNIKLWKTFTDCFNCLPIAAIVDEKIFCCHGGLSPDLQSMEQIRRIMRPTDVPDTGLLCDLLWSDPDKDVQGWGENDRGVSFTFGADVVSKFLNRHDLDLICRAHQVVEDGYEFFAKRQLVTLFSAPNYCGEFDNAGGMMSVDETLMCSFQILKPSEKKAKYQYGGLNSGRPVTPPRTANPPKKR

Legend:
[1] = biological target: endogenous HDAC7 of mouse cells (primary thymocytes; DO11.10-Empty cells) (mouse) (UniProt Q8C2B3); assay: immunoprecipitation with α-14-3-3ε from mouse primary thymocyte lysate, anti-HDAC7 Western blot
[2] = biological target: endogenous HDAC7 of mouse cells (primary thymocytes; DO11.10-Empty cells) (mouse) (UniProt Q8C2B3); assay: co-immunoprecipitation from mouse primary thymocyte lysate, anti-HDAC7 Western blot
[3] = biological target: endogenous HDAC7 of mouse cells (primary thymocytes; DO11.10-Empty cells) (mouse) (UniProt Q8C2B3); assay: co-immunoprecipitation, Western blot (mouse primary thymocytes)
[4] = biological target: T1, FLAG-tagged human HDAC7 (human) (UniProt Q8WUI4); assay: co-immunoprecipitation, Western blot (DO11.10 T cell hybridoma)
T1 sequence (looked up): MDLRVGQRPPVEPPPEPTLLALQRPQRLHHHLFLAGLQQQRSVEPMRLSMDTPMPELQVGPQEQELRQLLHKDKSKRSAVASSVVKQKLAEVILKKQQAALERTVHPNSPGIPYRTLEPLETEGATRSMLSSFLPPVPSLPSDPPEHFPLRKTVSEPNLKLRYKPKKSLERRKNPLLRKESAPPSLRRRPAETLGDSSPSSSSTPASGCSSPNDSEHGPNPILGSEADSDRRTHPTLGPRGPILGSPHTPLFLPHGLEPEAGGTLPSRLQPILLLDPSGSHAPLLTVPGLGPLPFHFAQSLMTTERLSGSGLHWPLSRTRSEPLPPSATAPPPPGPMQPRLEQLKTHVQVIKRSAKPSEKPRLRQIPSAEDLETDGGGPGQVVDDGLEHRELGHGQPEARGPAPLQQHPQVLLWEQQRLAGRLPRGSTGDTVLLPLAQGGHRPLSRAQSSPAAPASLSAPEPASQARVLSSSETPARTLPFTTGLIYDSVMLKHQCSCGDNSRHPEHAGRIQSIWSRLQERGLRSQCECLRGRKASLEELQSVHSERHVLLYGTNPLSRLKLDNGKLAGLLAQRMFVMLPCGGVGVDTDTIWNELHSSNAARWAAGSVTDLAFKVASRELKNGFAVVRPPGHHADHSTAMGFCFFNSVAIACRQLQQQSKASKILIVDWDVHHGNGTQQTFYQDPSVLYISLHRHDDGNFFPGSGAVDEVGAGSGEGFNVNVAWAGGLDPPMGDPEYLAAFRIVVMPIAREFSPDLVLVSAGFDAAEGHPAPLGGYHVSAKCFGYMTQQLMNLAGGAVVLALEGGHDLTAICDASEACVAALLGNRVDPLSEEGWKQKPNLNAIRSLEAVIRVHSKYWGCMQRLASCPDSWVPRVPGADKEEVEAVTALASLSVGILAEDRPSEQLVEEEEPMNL

Substance | binding [1] | binding [2] | binding [3] | binding [4]
14-3-3 protein epsilon (from UniProt P62259 1-255) | binds | – | – | –
myosin phosphatase (complex of PP1β and MYPT1) (from UniProt P62141 2-327; Q9DBR7 1-1029) (enzyme) | – | binds | binds | binds
